No constants are given. Whether binding was seen depends on the method and setting. In cells and extracts the contact can be indirect. Some results given as binding are weak or reduced against the parent protein; the word gives no strength. Where a sequence is shown, tags or fusion partners need not be part of it.

Chains of the proteins cited; added tags and fusions are not shown.
UniProt P26196: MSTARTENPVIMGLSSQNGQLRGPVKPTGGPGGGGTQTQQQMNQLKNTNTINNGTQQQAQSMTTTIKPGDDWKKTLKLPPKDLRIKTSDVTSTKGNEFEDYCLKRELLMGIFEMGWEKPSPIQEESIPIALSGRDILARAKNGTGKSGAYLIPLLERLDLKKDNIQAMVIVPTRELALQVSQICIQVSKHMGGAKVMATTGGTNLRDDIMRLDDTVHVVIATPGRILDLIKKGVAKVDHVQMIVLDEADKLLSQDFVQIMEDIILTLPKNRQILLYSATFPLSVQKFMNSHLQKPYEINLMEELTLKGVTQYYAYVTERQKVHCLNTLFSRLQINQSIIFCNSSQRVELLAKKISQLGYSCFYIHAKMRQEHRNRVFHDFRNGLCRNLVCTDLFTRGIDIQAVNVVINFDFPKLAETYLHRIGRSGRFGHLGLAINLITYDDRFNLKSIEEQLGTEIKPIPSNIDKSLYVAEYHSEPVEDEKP

These results are taken from publication PMC12069581.

Test [1] concerns the target DDX6-myc (human) (UniProt P26196). The test can be described thus: co-IP; HEK293 co-transfected with flag-praja2 (wild-type or Δ530–630) and DDX6-myc; lysates immunoprecipitated with anti-myc, blotted with anti-myc and anti-flag; lysis buffer 1% Triton, 150 mM NaCl, 50 mM Tris HCl pH 7.5, 1 mM EDTA.
In test [2] the target is T1, flag-praja2 (wild-type) (UniProt O43164).
T1 sequence: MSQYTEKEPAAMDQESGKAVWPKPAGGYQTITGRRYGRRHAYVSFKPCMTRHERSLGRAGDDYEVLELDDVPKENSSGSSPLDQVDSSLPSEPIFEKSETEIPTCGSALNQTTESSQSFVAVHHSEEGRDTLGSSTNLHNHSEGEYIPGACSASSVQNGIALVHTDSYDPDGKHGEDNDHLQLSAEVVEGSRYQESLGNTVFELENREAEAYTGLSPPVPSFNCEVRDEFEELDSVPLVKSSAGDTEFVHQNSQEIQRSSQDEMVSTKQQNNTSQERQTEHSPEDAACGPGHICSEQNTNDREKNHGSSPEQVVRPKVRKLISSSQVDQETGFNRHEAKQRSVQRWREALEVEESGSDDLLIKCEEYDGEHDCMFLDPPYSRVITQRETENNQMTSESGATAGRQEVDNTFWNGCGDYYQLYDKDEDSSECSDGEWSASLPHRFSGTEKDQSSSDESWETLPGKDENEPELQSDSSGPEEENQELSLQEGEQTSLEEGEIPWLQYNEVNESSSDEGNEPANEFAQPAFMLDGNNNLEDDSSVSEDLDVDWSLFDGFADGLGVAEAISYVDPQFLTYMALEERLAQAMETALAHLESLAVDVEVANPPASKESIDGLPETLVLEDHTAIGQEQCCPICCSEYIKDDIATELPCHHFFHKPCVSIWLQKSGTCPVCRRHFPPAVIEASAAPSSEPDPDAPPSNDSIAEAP
The test can be described thus: co-IP; HEK293 co-transfected with flag-praja2 and Gfp-DDX6; lysates immunoprecipitated with anti-flag, blotted with anti-flag, anti-Gfp, anti-DCP1A, anti-EDC3; lysis buffer 1% Triton, 150 mM NaCl, 50 mM Tris HCl pH 7.5, 1 mM EDTA.

B1: flag-praja2 (wild-type) (protein, UniProt O43164 1-708)
chain: MSQYTEKEPAAMDQESGKAVWPKPAGGYQTITGRRYGRRHAYVSFKPCMTRHERSLGRAGDDYEVLELDDVPKENSSGSSPLDQVDSSLPSEPIFEKSETEIPTCGSALNQTTESSQSFVAVHHSEEGRDTLGSSTNLHNHSEGEYIPGACSASSVQNGIALVHTDSYDPDGKHGEDNDHLQLSAEVVEGSRYQESLGNTVFELENREAEAYTGLSPPVPSFNCEVRDEFEELDSVPLVKSSAGDTEFVHQNSQEIQRSSQDEMVSTKQQNNTSQERQTEHSPEDAACGPGHICSEQNTNDREKNHGSSPEQVVRPKVRKLISSSQVDQETGFNRHEAKQRSVQRWREALEVEESGSDDLLIKCEEYDGEHDCMFLDPPYSRVITQRETENNQMTSESGATAGRQEVDNTFWNGCGDYYQLYDKDEDSSECSDGEWSASLPHRFSGTEKDQSSSDESWETLPGKDENEPELQSDSSGPEEENQELSLQEGEQTSLEEGEIPWLQYNEVNESSSDEGNEPANEFAQPAFMLDGNNNLEDDSSVSEDLDVDWSLFDGFADGLGVAEAISYVDPQFLTYMALEERLAQAMETALAHLESLAVDVEVANPPASKESIDGLPETLVLEDHTAIGQEQCCPICCSEYIKDDIATELPCHHFFHKPCVSIWLQKSGTCPVCRRHFPPAVIEASAAPSSEPDPDAPPSNDSIAEAP
On to B1, for which, in test [1], the binding entry is “binds”.

B2: enhancer of mRNA decapping 3 (EDC3) (endogenous, HEK293) (protein, UniProt Q96F86 1-508)
chain: MATDWLGSIVSINCGDSLGVYQGRVSAVDQVSQTISLTRPFHNGVKCLVPEVTFRAGDITELKILEIPGPGDNQHFGDLHQTELGPSGAGCQVGINQNGTGKFVKKPASSSSAPQNIPKRTDVKSQDVAVSPQQQQCSKSYVDRHMESLSQSKSFRRRHNSWSSSSRHPNQATPKKSGLKNGQMKNKDDECFGDDIEEIPDTDFDFEGNLALFDKAAVFEEIDTYERRSGTRSRGIPNERPTRYRHDENILESEPIVYRRIIVPHNVSKEFCTDSGLVVPSISYELHKKLLSVAEKHGLTLERRLEMTGVCASQMALTLLGGPNRLNPKNVHQRPTVALLCGPHVKGAQGISCGRHLANHDVQVILFLPNFVKMLESITNELSLFSKTQGQQVSSLKDLPTSPVDLVINCLDCPENVFLRDQPWYKAAVAWANQNRAPVLSIDPPVHEVEQGIDAKWSLALGLPLPLGEHAGRIYLCDIGIPQQVFQEVGINYHSPFGCKFVIPLHSA
For the molecule B2, the binding entry in test [2] was “binds”.
